# Source: publication PMC11142376
# Protein sequences, listed by entry. Tags and fused reporters are not part of them.
# UniProt P55852: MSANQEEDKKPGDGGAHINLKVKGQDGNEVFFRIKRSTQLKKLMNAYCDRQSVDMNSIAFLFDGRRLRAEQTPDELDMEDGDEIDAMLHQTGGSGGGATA
# UniProt Q9FLP6: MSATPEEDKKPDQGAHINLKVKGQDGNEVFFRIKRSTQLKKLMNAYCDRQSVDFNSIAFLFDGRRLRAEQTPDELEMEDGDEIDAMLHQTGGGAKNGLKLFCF
# These are yes or no findings as the source states them, for the method shown. Some binding calls cover weakened binding; strength is not graded here. Where a sequence is shown, tags or fusion partners need not be part of it.
# B1: AD-SSV3 (SIZ1 splicing variant 3, 884 aa) (enzyme, UniProt Q680Q4 1-884)
# chain: MDLEANCKEKLSYFRIKELKDVLTQLGLSKQGKKQELVDRILTLLSDEQAARLLSKKNTVAKEAVAKLVDDTYRKMQVSGASDLASKGQVSSDTSNLKVKGEPEDPFQPEIKVRCVCGNSLETDSMIQCEDPRCHVWQHVGCVILPDKPMDGNPPLPESFYCEICRLTRADPFWVTVAHPLSPVRLTATTIPNDGASTMQSVERTFQITRADKDLLAKPEYDVQAWCMLLNDKVLFRMQWPQYADLQVNGVPVRAINRPGGQLLGVNGRDDGPIITSCIRDGVNRISLSGGDVRIFCFGVRLVKRRTLQQVLNLIPEEGKGETFEDALARVRRCIGGGGGDDNADSDSDIEVVADFFGVNLRCPMSGSRIKVAGRFLPCVHMGCFDLDVFVELNQRSRKWQCPICLKNYSVEHVIVDPYFNRITSKMKHCDEEVTEIEVKPDGSWRVKFKRESERRELGELSQWHAPDGSLCPSAVDIKRKMEMLPVKQEGYSDGPAPLKLGIRKNRNGIWEVSKPNTNGLSSSNRQEKVGYQEKNIIPMSSSATGSGRDGDDASVNQDAIGTFDFVANGMELDSISMNVDSGYNFPDRNQSGEGGNNEVIVLSDSDDENDLVITPGPAYSGCQTDGGLTFPLNPPGIINSYNEDPHSIAGGSSGLGLFNDDDEFDTPLWSFPSETPEAPGFQLFRSDADVSGGLVGLHHHSPLNCSPEINGGYTMAPETSMASVPVVPGSTGRSEANDGLVDNPLAFGRDDPSLQIFLPTKPDASAQSGFKNQADMSNGLRSEDWISLRLGDSASGNHGDPATTNGINSSHQMSTREGSMDTTTETASLLLGMNDSRQDKAKKQRSDNPFSFPRQKRSNNEQDHQTRHRSLNKICIILCAGKN
# How the values were obtained:
# Experiment in all cases: two-hybrid; Gal4-based system (Clontech); AD fusions in pGAD424, BD fusions in pGBT8; yeast AH109; growth on -Leu/-Trp/-His minimal medium with 1 or 5 mM 3-AT
# [1] = target: T1, BD-AtSCE1 (SUMO-conjugating E2 enzyme SCE1) (Arabidopsis thaliana) (UniProt Q42551)
# T1 sequence: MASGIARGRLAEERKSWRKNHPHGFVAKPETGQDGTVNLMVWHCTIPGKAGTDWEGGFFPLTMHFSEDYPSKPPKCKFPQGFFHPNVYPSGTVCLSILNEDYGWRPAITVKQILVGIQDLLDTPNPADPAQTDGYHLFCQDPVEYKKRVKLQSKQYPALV
# [2] = target: BD-AtSUMO1 (Arabidopsis thaliana) (UniProt P55852)
# [3] = target: BD-AtSUMO2 (Arabidopsis thaliana) (UniProt Q9FLP6)
# [4] = target: T2, BD-AtSUMO3 (Arabidopsis thaliana) (UniProt Q9FLP5)
# T2 sequence: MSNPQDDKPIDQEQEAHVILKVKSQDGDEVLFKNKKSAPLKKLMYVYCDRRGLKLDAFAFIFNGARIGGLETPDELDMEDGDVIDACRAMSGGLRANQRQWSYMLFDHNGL
# [5] = target: T3, BD-AtSUMO5 (Arabidopsis thaliana) (UniProt Q8VZI7)
# T3 sequence: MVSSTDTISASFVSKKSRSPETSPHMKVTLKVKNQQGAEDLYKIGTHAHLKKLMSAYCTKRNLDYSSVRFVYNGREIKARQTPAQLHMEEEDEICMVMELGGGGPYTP
binder,measurement,setting,value
B1,binding,[1],binds
same,binding,[2],binds weakly
same,binding,[3],binds weakly
same,binding,[4],binds weakly
same,binding,[5],binds weakly
